The supplement of paper PMC12823440, “Inhibitors supercharge kinase turnover through native proteolytic circuits” (Nature, 2025)
This is one part of the list. Hit calls seldom repeat between salt and free forms of one compound.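 In K562 cells expressing nanoluciferase-fused kinases, luminescence was recorded at 4 h intervals between 2 and 18 h, normalized as percent of control with DMSO at 100% and a positive control at 0%. A significant (2 sigma) signal drop marks a time point as decreased. The authors' rule for a hit is not shown and takes in more than the number of time points.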

These compounds were tested against EGFR (UniProt P00533) (assay: kinase-Nluc reporter destabilization hit call (1 = scored as downregulated) (binary); higher = compound decreases kinase abundance). Conditions: K562; 2-18 h.

kinase-Nluc reporter destabilization hit call, inactive:
COc1ccc2c(C(=O)Nc3ccc(NC(=O)c4nn(C5CCN(C(=O)CC(C)(C)C#N)CC5)c5ccc(F)cc45)cc3Cl)cnn2c1 [Src Inhibitor 3] (2.5 µM) 0
CN1CCN(c2ccc(C(=O)Nc3n[nH]c4ccc(Cc5cc(F)cc(F)c5)cc34)c(NC3CCOCC3)c2)CC1 [Entrectinib] (2.5 µM) 0
CCN1CCN(Cc2ccc(C(=O)Nc3ccc(C)c(Oc4ccc5c(c4)CC(=O)N5)c3)cc2C(F)(F)F)CC1 (2.5 µM) 0

Each compound was assayed against EGFR_G719S (UniProt P00533) in the same assay as above. Conditions: K562; 2-18 h.

kinase-Nluc reporter destabilization hit call, inactive:
CC(C)(C)n1nc(Cc2cccc3ccccc23)c2c(N)ncnc21 (10 µM) 0
CC1(C)CC=C(c2nc(C3CC(C)(C)OC(C)(C)C3)ccc2NC(=O)c2nc(C#N)c[nH]2)CC1 [Edicotinib] (2.5 µM) 0
Cc1nc(-c2cnc(NC(C)C)n(C)c2=O)ccc1Oc1ccnc(-c2cnn(C)c2)c1 (2.5 µM) 0
CN(C)C(=O)/C(C#N)=C/c1ccc(-c2nc3cnc4[nH]ccc4c3n2C2CCCCC2)o1 (10 µM) 0
CCCS(=O)(=O)Nc1ccc(F)c(C(=O)c2c[nH]c3ncc(Cl)cc23)c1F (10 µM) 0
CNC(=O)c1cccc(-c2ccc3c(N4CCOC[C@@H]4C)nc(N4CCOC[C@@H]4C)nc3n2)c1 [Vistusertib] (2.5 µM) 0
COCCNCCc1cccc(Nc2ncc3c(n2)-c2ccccc2[C@H](c2ccccc2F)C3)c1 [Derazantinib] (2.5 µM) 0
COc1ccc(COc2ccc(Cc3cnc(N)nc3N)cc2OC)cc1 (10 µM) 0
CC(=O)N1CCN(c2ccc(OCC3COC(Cn4ccnc4)(c4ccc(Cl)cc4Cl)O3)cc2)CC1 (configuration not stated) [Ketoconazole] (2.5 µM) 0
Cc1ccc(F)c(NC(=O)Nc2ccc(-c3cccc4[nH]nc(N)c34)cc2)c1 [Linifanib] (2.5 µM) 0
NC(=O)c1ccc2nc(-c3ccc(Oc4ccc(Cl)cc4)cc3)[nH]c2c1 (10 µM) 0
CC(C)(C)c1cc(NC(=O)Nc2ccc(-c3cn4c(n3)sc3cc(OCCN5CCOCC5)ccc34)cc2)no1 [Quizartinib] (10 µM) 0
COc1cc2ncn(-c3cc(OCc4ccccc4C(F)(F)F)c(C(N)=O)s3)c2cc1OC (10 µM) 0
CCn1cc(-c2ccnc3[nH]c(-c4cccc(CN(C)C)c4)cc23)c(-c2ccc(NC(=O)N(C)C)cc2)n1 (2.5 µM) 0
C[C@H](CN(C)C)Oc1nc(Nc2cc3cccc(Cl)c3cn2)cnc1C#N (10 µM) 0
Cc1cccc(Cn2nc(C3CC3)c3c(NC(=O)c4cnc5cc(OCCN6CCN(C)CC6)ccn45)cccc32)n1 (10 µM) 0
COc1ccc2c(C(=O)Nc3ccc(NC(=O)c4nn(C5CCN(C(=O)CC(C)(C)C#N)CC5)c5ccc(F)cc45)cc3Cl)cnn2c1 [Src Inhibitor 3] (2.5 µM) 0
CN1CCN(c2ccc(C(=O)Nc3n[nH]c4ccc(Cc5cc(F)cc(F)c5)cc34)c(NC3CCOCC3)c2)CC1 [Entrectinib] (2.5 µM) 0
CCN1CCN(Cc2ccc(C(=O)Nc3ccc(C)c(Oc4ccc5c(c4)CC(=O)N5)c3)cc2C(F)(F)F)CC1 (2.5 µM) 0
